Results as given in patent US20260022376A1.
Results are given in words; binding and its absence hold for the method and conditions named. Binding seen in cells or lysates may run through a third protein. Some binding calls cover weakened binding; strength is not graded here.

The chains behind the UniProt entries cited, without tags or fusion partners. Where a name states a change or a piece, a line headed by the entry shows the natural chain unless it says otherwise. A line that says so, or that is headed by a name, gives the form on record, which may keep a tag or linker. Residues count along the entry.
human tau with the P301L mutation expressed in Drosophila (GMR-TauP301L) (P10636, form named): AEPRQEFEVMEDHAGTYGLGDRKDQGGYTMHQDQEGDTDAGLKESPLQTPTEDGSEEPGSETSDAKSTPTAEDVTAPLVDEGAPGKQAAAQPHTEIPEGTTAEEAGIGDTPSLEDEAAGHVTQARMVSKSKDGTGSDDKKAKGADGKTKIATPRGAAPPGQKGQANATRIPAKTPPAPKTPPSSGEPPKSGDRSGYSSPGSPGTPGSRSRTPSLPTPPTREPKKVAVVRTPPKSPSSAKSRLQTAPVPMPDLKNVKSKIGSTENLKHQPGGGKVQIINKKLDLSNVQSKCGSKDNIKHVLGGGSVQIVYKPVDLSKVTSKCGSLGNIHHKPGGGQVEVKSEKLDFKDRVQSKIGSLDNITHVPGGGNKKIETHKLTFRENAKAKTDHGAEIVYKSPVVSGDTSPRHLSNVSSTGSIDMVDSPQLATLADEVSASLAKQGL
wild-type human Bassoon, full-length, overexpressed (HEK293T cells; Drosophila UAS-BSN line) (Q9UPA5, residues 2-3926): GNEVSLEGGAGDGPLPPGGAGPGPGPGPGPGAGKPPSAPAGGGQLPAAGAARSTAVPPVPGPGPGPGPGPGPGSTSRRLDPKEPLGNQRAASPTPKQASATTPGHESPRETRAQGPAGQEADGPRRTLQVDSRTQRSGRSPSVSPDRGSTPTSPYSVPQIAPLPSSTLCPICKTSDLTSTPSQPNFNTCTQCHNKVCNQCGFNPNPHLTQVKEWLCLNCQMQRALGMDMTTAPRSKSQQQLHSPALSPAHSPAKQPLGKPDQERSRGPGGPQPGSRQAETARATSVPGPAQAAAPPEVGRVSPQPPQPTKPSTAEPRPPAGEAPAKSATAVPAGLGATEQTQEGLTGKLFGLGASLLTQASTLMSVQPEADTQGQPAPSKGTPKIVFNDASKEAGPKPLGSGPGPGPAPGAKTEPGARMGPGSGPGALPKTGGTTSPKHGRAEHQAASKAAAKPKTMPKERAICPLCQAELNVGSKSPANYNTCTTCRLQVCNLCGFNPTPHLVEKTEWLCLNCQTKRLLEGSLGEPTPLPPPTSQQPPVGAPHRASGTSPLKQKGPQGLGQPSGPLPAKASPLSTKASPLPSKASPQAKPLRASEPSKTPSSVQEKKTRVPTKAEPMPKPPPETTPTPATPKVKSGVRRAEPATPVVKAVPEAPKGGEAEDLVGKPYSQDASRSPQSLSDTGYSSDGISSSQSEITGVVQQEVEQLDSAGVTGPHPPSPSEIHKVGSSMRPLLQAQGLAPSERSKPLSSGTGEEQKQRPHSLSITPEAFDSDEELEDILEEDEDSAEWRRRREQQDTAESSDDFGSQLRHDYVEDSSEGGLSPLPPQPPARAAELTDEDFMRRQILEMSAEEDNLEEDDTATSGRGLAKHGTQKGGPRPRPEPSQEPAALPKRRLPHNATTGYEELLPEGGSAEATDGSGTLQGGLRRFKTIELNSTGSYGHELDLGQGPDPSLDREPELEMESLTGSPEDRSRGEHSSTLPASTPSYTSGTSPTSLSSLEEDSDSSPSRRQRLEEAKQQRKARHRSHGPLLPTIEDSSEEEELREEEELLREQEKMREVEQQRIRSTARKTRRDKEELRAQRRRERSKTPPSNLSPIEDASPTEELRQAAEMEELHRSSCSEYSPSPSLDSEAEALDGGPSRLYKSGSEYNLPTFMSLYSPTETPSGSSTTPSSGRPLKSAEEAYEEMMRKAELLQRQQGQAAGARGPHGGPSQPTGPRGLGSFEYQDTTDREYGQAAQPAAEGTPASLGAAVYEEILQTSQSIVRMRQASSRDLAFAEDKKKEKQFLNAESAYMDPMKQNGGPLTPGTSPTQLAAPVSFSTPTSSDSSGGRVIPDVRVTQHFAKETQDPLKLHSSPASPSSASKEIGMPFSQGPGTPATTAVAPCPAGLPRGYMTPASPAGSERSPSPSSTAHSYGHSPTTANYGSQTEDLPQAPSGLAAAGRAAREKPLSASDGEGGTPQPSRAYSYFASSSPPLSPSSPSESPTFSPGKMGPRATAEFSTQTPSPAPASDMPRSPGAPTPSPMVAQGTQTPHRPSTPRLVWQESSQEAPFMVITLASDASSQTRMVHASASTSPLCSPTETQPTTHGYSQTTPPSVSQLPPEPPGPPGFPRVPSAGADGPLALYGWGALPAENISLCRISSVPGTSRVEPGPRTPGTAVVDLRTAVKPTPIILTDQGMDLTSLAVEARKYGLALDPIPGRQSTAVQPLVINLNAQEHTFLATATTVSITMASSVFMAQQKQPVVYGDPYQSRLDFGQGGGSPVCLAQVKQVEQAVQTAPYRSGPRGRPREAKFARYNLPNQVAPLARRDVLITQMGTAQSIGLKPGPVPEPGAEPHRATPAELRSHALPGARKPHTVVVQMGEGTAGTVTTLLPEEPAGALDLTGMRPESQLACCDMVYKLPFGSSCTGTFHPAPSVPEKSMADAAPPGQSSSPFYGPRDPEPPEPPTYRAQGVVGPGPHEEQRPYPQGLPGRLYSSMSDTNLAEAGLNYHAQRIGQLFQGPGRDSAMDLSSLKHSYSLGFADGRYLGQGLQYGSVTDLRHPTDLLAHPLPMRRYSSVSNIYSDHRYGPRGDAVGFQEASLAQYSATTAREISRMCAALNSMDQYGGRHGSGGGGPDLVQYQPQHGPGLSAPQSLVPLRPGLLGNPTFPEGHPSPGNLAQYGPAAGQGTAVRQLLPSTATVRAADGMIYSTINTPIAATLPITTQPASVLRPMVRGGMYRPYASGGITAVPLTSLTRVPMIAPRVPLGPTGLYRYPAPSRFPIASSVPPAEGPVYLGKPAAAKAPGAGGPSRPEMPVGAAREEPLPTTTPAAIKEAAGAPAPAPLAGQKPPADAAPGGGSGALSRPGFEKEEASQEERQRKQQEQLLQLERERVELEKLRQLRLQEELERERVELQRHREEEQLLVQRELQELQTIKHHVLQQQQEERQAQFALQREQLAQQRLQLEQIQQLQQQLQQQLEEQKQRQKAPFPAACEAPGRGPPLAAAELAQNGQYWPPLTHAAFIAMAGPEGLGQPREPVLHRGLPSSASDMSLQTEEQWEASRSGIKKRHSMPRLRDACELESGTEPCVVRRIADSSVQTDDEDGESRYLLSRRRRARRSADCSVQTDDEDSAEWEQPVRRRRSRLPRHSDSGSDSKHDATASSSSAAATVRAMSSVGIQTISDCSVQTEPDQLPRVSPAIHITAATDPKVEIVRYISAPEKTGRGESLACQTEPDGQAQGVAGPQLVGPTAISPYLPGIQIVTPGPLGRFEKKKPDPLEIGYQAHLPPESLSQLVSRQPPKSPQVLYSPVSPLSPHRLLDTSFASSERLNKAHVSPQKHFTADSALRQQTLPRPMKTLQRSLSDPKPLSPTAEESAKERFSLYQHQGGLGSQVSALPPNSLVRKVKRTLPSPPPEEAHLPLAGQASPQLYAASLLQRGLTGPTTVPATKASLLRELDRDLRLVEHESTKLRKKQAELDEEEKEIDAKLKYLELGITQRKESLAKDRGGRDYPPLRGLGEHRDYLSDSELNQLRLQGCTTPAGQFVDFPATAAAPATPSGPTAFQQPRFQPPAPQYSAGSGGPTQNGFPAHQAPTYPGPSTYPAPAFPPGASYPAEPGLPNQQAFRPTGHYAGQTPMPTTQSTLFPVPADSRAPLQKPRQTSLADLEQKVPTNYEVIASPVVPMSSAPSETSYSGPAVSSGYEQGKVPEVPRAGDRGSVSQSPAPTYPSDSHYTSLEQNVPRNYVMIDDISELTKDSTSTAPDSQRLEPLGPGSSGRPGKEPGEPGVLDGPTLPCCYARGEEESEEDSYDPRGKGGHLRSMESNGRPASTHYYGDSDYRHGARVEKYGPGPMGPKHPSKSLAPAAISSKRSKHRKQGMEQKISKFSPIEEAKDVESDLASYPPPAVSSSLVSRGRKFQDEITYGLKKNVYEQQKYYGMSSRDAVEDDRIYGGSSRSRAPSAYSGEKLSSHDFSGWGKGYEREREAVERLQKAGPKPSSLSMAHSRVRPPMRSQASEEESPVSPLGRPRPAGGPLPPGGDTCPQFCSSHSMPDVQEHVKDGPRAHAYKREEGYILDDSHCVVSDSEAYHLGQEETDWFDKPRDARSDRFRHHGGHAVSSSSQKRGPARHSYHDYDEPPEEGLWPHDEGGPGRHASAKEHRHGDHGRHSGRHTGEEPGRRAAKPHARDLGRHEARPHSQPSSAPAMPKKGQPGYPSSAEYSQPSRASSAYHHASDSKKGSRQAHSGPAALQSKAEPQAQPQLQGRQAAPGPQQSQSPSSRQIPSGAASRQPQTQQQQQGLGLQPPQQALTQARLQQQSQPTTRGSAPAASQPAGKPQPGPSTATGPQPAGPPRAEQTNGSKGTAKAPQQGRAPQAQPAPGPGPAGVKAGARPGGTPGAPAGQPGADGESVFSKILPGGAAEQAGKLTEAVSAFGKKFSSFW

Molecular target: human tau with the P301L mutation expressed in Drosophila (GMR-TauP301L) (human) (UniProt P10636)
Test: co-IP of human tau (HT7) with BSN Western blot, fly head lysates

binding | Substance
binds | human BSN harboring the P3866A mutation, full-length, overexpressed in Drosophila (from UniProt Q9UPA5 2-3926)
binds | wild-type human Bassoon, full-length, overexpressed (HEK293T cells; Drosophila UAS-BSN line) (from UniProt Q9UPA5 2-3926)
